# In PubChem BioAssay (EPA / NIEHS):
# By UniProt entry, the sequences of proteins in these tests, tags left out. Where a name states a change or a piece, a line headed by the entry shows the natural chain unless it says otherwise.
# UniProt O70528: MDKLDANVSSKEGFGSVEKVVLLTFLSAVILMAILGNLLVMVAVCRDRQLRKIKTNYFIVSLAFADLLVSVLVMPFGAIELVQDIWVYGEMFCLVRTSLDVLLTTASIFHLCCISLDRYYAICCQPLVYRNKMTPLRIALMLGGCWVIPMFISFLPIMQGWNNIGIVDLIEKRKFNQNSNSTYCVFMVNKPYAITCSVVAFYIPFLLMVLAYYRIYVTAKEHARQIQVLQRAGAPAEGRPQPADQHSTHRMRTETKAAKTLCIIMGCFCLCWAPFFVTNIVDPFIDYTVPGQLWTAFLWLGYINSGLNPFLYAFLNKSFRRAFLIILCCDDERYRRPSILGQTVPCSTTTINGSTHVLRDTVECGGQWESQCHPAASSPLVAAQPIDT
# For some of these results: The hits were mostly taken out for another list; the other results follow. Records with an inconclusive call do not appear. The entries are a selection whose mix differs from that of the whole data set. Where a structure was tested more than once in an assay, its records may differ in their call. Active and inactive are the calls of the source. The calls were made as follows, unless noted: active = hit-call score of the fitted dose curve at least 0.9, where 1 is the maximum; inactive = score below 0.9.
# What was measured:
# [1] = read-out: Transforming growth factor beta 1 (TGFb1), TGFB1 (gene 7040); assay: BSK_BE3C_TGFb1: BioMAP Diversity Plus: BE3C Assay for Transforming growth factor beta 1 (TGFb1) Biomarker Activity (AID 2283036;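 also: TGF-b1 protein level measured by ELISA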); conditions: actives raise or lower the signal; primary human bronchial epithelial cells
# How it was run: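 Primary human lung bronchial epithelial cells; compound exposure 24 h; TGF-b1 by ELISA; bidirectional fit, DMSO baseline. Parallel SRB total-protein staining for cytotoxicity.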
# [2] = read-out: Urokinase-type plasminogen activator receptor (uPAR), PLAUR (gene 5329); assay: BSK_BE3C_uPAR: BioMAP Diversity Plus: BE3C Assay for Urokinase-type plasminogen activator receptor (uPAR) Biomarker Activity (AID 2283039); conditions: actives raise or lower the signal; primary human bronchial epithelial cells;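 also: uPAR protein level measured by ELISA on the cells; cells exposed to compound for one day before measurement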
# How it was run: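 Human bronchial epithelial primary cells; chemical exposure 24 h; uPAR by ELISA; bidirectional fit vs DMSO control.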
# [3] = CEETOX_H295R_11DCORT: CeeTox H295R High-throughput Steroidogenesis Assay for 11-Deoxycortisol (11DCORT) (AID 2283432); conditions: actives raise or lower the signal;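 also: human adrenal H295R cells prestimulated with 10 µM forskolin for 48 h; 11-deoxycortisol secreted into the medium measured by LC-MS/MS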
# How it was run: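 H295R cells prestimulated 48 h with 10 uM forskolin, then exposed 48 h to chemical in 0.1% DMSO. 11-Deoxycortisol in medium quantified by HPLC-MS/MS after MTBE extraction; bidirectional fit versus DMSO. MTT viability read in same wells.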
# [4] = ArunA_CellTiter_hNP: Viability Assessment in the ArunA Biomedical's Oris Neural Crest (hNC) Cell Migration Assay (AID 2283753; active = hit-call score of the fitted dose curve at least 0.9, where 1 is the maximum)
# How it was run: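 H9-derived hNP1 neuroprogenitors, 60,000/well on Matrigel, cultured 16 h, then 72 h chemical exposure in test medium. Cell titer via CellTiter Aqueous One; positive-direction fit vs DMSO.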
# [5] = VALA_TUBHUV_Agonist_CellCount: Viability Assessment in the VALA Sciences human Umbilical Vein Endothelial Tubule Formation (TUBHUV) Agonism Assay (AID 2284309; active = hit-call score of the fitted dose curve at least 0.9, where 1 is the maximum)
# How it was run: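 HUVEC co-cultured 1:3 with HDF for 3 days in 10 ng/ml VEGF, then compounds added in VEGF medium for a further 3 days (72 h). Nuclear-stain/CD31 imaging cell count. Positive-direction fit versus 0.1% DMSO vehicle.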
# [6] = VALA_MIGHUV2_CellCount: Viability Assessment in the VALA Sciences human Umbilical Vein Endothelial Cell Migration (MIGHUV) Assay, Area of Scratch Wound after Recovery (AID 2284314; active = hit-call score of the fitted dose curve at least 0.9, where 1 is the maximum)
# How it was run: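 Scratch-wounded HUVEC monolayers received test chemical within 30 min, 6-point concentration response in triplicate, 0.1 % DMSO vehicle. After 24 h wound recovery, fixed cells were Hoechst-stained and nuclei imaged; loss of signal versus DMSO indicates reduced viability.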
# [7] = VALA_TUBIPS_Agonist_CellCount: Viability Assessment in the VALA Sciences human iPS-derived Endothelial Tubule Formation (TUBIPS) Agonism Assay (AID 2284338; active = hit-call score of the fitted dose curve at least 0.9, where 1 is the maximum)
# Method: VALA_TUBIPS_Agonist is a cell-based, multiplexed assay that uses human iPS-derived endothelial cells (iPSC). Measurements were taken 72 hours after chemical dosing in a 96-well plate.VALA_TUBIPS_Agonist_CellCount is the one of two assay components measured from the VALA_TUBIPS_Agonist assay. It is designed to make measurements of viability, a form of viability reporter, as detected with fluorescence intensity signals by HCS Fluorescent Imaging technology. Data from the assay component VALA_TUBIPS_Agonist_CellCount was analyzed at the endpoint, VALA_TUBIPS_Agonist_CellCount, in the positive analysis fitting direction relative to DMSO as the negative control and baseline of activity. Using a type of viability reporter, loss-of-signal activity can be used to understand viability. To generalize the intended target to other relatable targets, this assay endpoint is annotated to the cell cycle intended target family, where the subfamily is cell count.
# This HUVEC-HDF assay was designed to detect chemical suppression of tubulogenesis, i.e. antagonism. To measure tubulogenesis antagonism, HUVEC cells were co-cultured with HDF cells at a 1:3 ratio for 3-days in 10 ng/ml VEGF (i.e., favorable conditions with growth factors), then changed to assay medium containing 10 ng/ml VEGF and ToxCast compounds for an additional 3-day period. […]
# [8] = BSK_4H_SRB: Viability Assessment in the BioMAP Diversity Plus: 4H Assay (AID 2283027); conditions: primary human endothelial cells (HUVEC);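 also: cells exposed to compound for 24 h before staining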
# How it was run: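 Absorbance at 560 nm of SRB-stained total protein served as the viability read-out in confluent primary human umbilical vein endothelium 24 h after chemical treatment. Curves were fitted bidirectionally against DMSO as negative control.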
# [9] = TOX21_p53_BLA_p2_viability: Viability Assessment in the Tox21 HCT-116 p53 Agonism Beta-lactamase Assay, Phase 2 (AID 2283591; active = hit-call score of the fitted dose curve at least 0.9, where 1 is the maximum;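 also: compound exposure lasted 16 h at 37 °C; actives lower the ATP signal meaning cytotoxicity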)
# How it was run: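 Cytotoxicity readout: CellTiter-Glo ATP luminescence, 30 min at room temperature, after the beta-lactamase read. Cells were HCT116 exposed 16 h at 37C to compounds pin-transferred at 217-fold dilution from DMSO stocks.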
# [10] = read-out: Matrix Metallopeptidase 1 (MMP1), MMP1 (gene 4312); assay: BSK_BE3C_MMP1: BioMAP Diversity Plus: BE3C Assay for Matrix Metallopeptidase 1 (MMP1) Biomarker Activity (AID 2283024); conditions: actives raise or lower the signal; primary human bronchial epithelial cells
# How it was run: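 Human bronchial epithelial cells (BE3C system) exposed to compound for 24 h; MMP1 then quantified by ELISA. Activity was fitted in both directions relative to DMSO.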
# [11] = molecular target: guinea pig Serotonin, 5-Hydroxytryptamine Receptor 4 (5HT4), HTR4 (gene 100135548) (UniProt O70528); assay: NVS_GPCR_g5HT4: NovaScreen (NVS) G Protein-Coupled Receptor Assay for guinea pig Serotonin, 5-Hydroxytryptamine Receptor 4 (5HT4) (AID 2283294; active = hit-call score of the fitted dose curve at least 0.9, where 1 is the maximum)
# [12] = read-out: adenosine kinase (ADK) gene, ADK (gene 132); assay: LTEA_HepaRG_ADK: Life Technologies and Expression Analysis (LTEA) Assay for adenosine kinase (ADK) gene using HepaRG (AID 2283471); conditions: actives raise or lower the signal; mRNA level, 48 h
# How it was run: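 Differentiated HepaRG cells dosed 48 h in serum-free induction medium, 0.5% DMSO vehicle, eight half-log concentrations from 100 uM, in duplicate. ADK mRNA by TaqMan qRT-PCR normalised to ACTB, GAPDH, POLR2A; bidirectional fit versus DMSO.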
# [13] = read-out: NAD(P)H dehydrogenase [quinone] 1 (NQO1), NQO1 (gene 1728); assay: LTEA_HepaRG_NQO1: Life Technologies and Expression Analysis (LTEA) Assay for NAD(P)H dehydrogenase [quinone] 1 (NQO1) using HepaRG (AID 2283526); conditions: actives raise or lower the signal; mRNA level, 48 h
# How it was run: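 HepaRG, 48 h post-plating → serum-free induction medium → test chemical 48 h (duplicate, 100 uM top, half-log x8, 0.5% DMSO) → RNA isolation → qRT-PCR, ACTB/GAPDH/POLR2A normalization; bidirectional curve fit vs DMSO baseline.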
# [14] = TOX21_p53_BLA_p5_viability: Viability Assessment in the Tox21 HCT-116 p53 Agonism Beta-lactamase Assay, Phase 5 (AID 2283600; active = hit-call score of the fitted dose curve at least 0.9, where 1 is the maximum)
# How it was run: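 Cells were plated at 4000/well, rested 5 h at 37C, then given compounds in DMSO (217-fold dilution) for 16 h at 37C, 5% CO2. Following the CCF4-AM beta-lactamase read, CellTiter-Glo was added and luminescence was read after 30 min at room temperature.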
# [15] = BSK_3C_Vis: BioMAP Diversity Plus: 3C Assay for Morphology Visualization (AID 2283025); conditions: primary human endothelial cells (HUVEC);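 also: light microscopy image of cell morphology used as background control; fitted both ways so gain or loss versus DMSO counts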
# How it was run: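 Chemicals were added to primary human umbilical vein endothelium, cells were incubated 24 h, and morphology was then visualized by light microscopy. Gain or loss of signal was fitted bidirectionally relative to DMSO.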
# [16] = read-out: Vascular cell adhesion molecule 1 (VCAM1), VCAM1 (gene 7412); assay: BSK_LPS_VCAM1: BioMAP Diversity Plus: LPS Assay for Vascular cell adhesion molecule 1 (VCAM1) Biomarker Activity (AID 2283086); conditions: actives raise or lower the signal; primary human HUVEC with PBMC
# How it was run: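 HUVEC + PBMC co-culture, LPS system; compound 24 h; VCAM-1 by ELISA; bidirectional fit vs DMSO control; parallel SRB (0.1%, TCA-fixed, 560 nm) for cytotoxicity.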
compound,measurement,setting,value
CC(C)c1cccc(C(C)C)c1N1C(=O)c2ccc(O)cc2C1=O,outcome,[1],inactive
same,outcome,[2],inactive
same,AC50,[3],active: 37.5 µM
same,AC50,[4],active: 7.84 µM
same,AC50,[5],active: 50 µM
same,AC50,[6],active: 50 µM
same,AC50,[7],active: 50 µM
O=C(c1ccccc1)c1ccccc1,outcome,[8],inactive
same,outcome,[9],inactive
CCN(CC)C(=O)c1cc(S(=O)(=O)Cc2ccccc2)c(N2CCC(c3ccccc3)CC2)cc1N(CC)CCN(C)C,AC50,[10],active: 10.8 µM
same,AC50,[11],active: 10.1 µM
same,AC50,[12],active: 31 µM
same,AC50,[13],active: 28.7 µM
same,outcome,[14],inactive
CN1CCN(Cc2cc(-c3ccc4[nH]c(=O)oc4c3)co2)[C@@H](c2ccc(F)cc2)C1,AC50,[15],active: 34 µM
same,AC50,[16],active: 21.3 µM
